The source of these data is PMC5336696, “Structural basis for potency differences between GDF8 and GDF11” (BMC Biology, 2017).

No constants are given. Whether binding was seen depends on the method and setting. Binding can be weak; no strength is given.

The target of this assay is T1, mature GDF8 of the wt latent complex (human) (UniProt O14793).
T1 sequence: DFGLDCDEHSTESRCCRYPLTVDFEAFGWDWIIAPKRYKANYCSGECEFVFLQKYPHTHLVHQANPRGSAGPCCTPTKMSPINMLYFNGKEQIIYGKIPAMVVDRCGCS
Put plainly: SEC; latent prodomain:mature ligand complex from concentrated conditioned media of HEK293T cells co-transfected with furin, Superdex S200; peak analysed by SDS-PAGE.

For the substance “wt GDF8 prodomain (of the latent complex) (human) (domain or fragment)”, the binding result was “binds”.
